Reference: the supplement of paper PMC10849652
Some of the results follow.

Protein sequences, listed by entry. Tags and fused reporters are not part of them. Lines headed by an entry give the natural chain unless they say otherwise; changes in a name come on top.
UniProt Q13554, whole entry, looked up: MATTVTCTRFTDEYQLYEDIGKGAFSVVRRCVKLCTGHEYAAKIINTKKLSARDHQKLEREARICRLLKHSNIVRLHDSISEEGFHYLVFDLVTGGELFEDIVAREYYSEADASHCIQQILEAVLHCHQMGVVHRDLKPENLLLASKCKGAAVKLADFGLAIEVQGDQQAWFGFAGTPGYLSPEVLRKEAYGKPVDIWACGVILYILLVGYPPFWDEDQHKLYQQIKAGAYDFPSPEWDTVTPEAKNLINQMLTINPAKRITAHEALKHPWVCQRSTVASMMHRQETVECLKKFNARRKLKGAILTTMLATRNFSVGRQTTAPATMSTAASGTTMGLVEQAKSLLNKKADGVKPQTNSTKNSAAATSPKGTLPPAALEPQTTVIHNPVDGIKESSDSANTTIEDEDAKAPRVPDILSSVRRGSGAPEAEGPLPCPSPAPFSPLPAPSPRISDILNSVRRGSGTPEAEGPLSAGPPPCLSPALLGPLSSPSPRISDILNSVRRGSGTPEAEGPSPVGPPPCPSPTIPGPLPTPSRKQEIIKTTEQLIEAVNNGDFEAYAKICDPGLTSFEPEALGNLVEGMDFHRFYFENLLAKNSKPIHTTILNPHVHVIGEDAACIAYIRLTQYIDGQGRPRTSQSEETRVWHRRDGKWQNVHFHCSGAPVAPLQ
UniProt Q9Y376: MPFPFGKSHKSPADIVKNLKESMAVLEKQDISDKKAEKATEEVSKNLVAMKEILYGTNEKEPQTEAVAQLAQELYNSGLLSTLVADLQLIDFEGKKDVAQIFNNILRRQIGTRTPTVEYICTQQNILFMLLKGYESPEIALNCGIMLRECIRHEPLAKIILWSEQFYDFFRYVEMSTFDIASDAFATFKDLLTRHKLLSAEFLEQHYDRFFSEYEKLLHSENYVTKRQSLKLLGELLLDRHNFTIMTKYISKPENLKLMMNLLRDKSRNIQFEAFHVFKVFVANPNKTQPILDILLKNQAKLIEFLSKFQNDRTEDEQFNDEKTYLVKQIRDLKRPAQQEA
UniProt Q9NZ63: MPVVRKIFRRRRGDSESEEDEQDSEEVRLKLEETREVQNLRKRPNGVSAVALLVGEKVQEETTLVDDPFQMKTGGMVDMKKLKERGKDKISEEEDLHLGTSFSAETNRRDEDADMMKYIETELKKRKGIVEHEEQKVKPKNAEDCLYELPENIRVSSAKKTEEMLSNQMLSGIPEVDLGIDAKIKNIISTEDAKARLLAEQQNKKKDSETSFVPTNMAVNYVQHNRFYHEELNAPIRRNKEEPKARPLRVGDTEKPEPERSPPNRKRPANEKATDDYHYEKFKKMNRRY
UniProt Q9BSU1: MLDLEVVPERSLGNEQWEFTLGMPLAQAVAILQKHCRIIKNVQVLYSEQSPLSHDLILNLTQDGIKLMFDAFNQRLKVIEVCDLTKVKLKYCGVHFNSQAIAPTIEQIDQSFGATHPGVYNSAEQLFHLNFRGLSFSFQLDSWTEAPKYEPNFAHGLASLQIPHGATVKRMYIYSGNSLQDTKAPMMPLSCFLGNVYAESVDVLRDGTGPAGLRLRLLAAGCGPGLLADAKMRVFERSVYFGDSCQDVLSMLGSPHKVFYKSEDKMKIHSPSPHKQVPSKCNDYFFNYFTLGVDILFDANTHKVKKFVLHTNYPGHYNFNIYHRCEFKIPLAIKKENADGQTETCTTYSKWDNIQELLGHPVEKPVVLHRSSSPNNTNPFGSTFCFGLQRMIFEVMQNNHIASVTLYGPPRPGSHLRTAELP
UniProt P04632: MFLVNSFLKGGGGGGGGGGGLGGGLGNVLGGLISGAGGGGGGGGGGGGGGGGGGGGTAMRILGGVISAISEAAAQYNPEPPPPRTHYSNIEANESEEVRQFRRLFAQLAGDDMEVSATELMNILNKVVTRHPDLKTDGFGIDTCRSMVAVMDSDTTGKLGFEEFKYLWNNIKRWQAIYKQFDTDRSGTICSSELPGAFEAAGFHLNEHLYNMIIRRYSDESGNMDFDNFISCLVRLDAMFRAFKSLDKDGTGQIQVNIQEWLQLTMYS
UniProt Q9Y2V0: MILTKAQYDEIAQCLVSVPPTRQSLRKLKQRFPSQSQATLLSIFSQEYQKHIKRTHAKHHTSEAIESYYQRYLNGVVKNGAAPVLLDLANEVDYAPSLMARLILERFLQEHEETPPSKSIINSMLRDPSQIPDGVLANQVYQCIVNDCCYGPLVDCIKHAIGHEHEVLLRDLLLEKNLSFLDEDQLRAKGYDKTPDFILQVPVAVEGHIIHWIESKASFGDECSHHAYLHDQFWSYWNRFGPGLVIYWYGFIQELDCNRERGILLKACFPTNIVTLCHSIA
UniProt Q96B23: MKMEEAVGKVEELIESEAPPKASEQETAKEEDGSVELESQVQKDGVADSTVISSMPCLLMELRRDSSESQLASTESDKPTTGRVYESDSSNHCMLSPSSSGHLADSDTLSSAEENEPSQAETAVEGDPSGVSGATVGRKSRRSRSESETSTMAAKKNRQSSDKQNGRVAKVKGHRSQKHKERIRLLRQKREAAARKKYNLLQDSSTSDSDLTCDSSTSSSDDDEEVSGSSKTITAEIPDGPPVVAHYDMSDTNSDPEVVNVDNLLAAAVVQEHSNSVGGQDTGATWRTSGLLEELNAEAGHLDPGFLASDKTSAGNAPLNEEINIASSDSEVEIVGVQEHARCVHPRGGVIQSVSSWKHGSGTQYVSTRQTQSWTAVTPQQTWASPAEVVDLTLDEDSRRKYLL
UniProt Q9BTV7: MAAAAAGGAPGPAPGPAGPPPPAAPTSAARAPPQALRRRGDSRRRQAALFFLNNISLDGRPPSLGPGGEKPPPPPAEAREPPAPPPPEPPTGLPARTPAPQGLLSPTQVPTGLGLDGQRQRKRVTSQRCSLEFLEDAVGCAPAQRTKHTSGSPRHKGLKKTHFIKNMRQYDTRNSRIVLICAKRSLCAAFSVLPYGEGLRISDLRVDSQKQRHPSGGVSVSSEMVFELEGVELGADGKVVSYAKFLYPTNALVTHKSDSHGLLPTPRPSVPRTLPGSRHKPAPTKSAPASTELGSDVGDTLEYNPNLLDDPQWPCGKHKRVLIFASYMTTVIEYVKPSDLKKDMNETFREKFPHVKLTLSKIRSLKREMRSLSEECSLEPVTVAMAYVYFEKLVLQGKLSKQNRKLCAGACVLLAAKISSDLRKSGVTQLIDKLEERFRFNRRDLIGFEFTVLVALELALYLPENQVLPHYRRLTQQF
UniProt Q8N6N3: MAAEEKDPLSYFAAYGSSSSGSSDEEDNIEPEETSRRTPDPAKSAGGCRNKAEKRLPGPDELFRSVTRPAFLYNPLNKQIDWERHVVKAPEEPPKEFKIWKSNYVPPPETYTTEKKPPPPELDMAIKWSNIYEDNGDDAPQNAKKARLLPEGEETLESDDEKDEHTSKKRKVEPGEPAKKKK
UniProt O00478: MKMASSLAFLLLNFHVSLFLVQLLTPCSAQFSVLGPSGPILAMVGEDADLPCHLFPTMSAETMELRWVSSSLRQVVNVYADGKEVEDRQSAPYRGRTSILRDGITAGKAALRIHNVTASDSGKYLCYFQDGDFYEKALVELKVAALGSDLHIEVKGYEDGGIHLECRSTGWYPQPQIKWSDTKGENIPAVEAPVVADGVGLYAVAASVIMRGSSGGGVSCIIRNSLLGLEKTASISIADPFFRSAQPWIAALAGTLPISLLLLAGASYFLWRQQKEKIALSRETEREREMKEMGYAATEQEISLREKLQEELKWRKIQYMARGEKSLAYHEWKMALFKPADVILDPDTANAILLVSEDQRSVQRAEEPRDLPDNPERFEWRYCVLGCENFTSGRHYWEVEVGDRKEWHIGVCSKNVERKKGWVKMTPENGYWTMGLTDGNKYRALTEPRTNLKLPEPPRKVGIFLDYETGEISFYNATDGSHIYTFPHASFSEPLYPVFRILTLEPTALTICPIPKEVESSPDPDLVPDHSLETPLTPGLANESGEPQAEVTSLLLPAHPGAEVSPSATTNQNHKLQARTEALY
UniProt Q96EU7: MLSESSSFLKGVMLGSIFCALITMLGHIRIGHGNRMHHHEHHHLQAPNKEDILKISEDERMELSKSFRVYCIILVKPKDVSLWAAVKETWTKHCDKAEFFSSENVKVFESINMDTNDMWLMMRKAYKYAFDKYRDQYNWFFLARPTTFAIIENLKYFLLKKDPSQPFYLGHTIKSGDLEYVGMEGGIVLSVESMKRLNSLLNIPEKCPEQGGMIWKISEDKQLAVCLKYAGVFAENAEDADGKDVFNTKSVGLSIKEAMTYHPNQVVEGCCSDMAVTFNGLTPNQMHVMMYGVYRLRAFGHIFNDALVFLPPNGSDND
UniProt Q9UFG5: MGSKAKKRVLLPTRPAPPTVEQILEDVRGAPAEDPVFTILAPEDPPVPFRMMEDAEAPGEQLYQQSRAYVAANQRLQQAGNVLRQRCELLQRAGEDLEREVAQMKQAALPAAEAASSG
UniProt Q8IYL3: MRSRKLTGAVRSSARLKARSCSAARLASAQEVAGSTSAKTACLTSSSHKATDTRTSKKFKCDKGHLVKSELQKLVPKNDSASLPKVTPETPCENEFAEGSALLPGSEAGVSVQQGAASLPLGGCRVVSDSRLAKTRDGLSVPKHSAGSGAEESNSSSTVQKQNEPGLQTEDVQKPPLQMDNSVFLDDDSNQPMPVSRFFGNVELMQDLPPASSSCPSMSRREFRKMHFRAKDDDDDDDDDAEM
UniProt Q8WUQ7: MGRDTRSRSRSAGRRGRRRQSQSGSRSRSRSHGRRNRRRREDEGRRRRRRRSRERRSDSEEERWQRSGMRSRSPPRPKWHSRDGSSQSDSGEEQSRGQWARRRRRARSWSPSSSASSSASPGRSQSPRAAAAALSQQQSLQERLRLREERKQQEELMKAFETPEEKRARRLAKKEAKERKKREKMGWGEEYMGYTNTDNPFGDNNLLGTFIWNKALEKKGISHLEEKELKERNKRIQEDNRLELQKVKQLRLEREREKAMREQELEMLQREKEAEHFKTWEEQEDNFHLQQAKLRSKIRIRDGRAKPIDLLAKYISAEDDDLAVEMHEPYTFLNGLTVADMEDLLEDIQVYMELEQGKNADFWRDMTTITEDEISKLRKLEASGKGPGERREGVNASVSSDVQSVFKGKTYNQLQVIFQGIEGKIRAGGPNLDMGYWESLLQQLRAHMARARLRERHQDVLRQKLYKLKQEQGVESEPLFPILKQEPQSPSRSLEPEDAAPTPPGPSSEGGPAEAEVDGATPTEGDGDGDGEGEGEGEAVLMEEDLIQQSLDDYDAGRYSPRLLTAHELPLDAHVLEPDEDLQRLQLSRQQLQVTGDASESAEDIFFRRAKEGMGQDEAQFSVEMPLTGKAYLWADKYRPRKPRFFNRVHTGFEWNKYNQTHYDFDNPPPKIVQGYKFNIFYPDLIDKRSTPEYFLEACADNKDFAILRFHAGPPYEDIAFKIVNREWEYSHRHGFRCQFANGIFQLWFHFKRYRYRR
UniProt Q5JPI3: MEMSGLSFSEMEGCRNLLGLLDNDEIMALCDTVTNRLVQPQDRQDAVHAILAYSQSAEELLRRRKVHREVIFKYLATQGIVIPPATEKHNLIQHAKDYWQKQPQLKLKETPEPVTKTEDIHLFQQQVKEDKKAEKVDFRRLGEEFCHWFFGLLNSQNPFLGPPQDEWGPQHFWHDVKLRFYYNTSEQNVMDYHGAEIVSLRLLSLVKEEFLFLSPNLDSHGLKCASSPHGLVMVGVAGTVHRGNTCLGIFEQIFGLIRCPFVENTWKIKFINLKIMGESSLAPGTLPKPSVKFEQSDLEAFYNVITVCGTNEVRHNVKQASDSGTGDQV
UniProt Q9H425: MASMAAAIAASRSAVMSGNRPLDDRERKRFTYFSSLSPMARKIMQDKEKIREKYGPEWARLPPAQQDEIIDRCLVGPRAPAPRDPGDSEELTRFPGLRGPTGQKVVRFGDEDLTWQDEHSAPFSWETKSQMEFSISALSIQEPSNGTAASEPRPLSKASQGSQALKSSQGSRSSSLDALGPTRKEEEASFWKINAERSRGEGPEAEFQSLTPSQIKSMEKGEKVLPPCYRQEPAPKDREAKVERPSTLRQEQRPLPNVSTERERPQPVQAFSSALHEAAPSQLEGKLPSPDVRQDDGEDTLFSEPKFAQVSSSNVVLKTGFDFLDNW
UniProt Q6UWU4: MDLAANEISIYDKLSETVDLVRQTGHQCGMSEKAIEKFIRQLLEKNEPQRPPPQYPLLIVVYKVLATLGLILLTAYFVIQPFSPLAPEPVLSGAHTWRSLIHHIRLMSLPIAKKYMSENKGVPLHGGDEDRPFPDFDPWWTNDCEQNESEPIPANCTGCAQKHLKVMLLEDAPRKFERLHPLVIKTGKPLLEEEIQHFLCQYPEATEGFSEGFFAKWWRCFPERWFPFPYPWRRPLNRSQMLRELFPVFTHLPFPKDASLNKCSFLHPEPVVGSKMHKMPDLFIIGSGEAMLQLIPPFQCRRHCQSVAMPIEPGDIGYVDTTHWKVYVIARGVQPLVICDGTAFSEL

Compound: CC1=C2C(=CC=C1)N=C(N(C2=O)C3=CC=CC=C3C)CN4C=NC5=C(N=CN=C54)N
Experiment: log2 fold change, soluble protein after heating vs DMSO (PISA); higher = thermal stabilisation; K562 lysate, 10 uM; active = over 0.2 and 3.5 SD of the protein, either way, in both replicates (recomputed)
Method in brief: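 K562 pellets were dounce-homogenised in PBS pH 7.4 with 1 mM MgCl2, and the crude extract at 1 mg/mL protein was treated with 10 μM compound for 30 min. Aliquots were heated for 3 min across 48°C-58°C, pooled, and brought to 0.5% NP-40 at 4°C; soluble protein was the supernatant after 21,000xg for 90 min. Soluble protein was quantified by TMTpro 16plex LC-MS/MS with channel sums equalised, and reported as log2 fold change in thermal stability against DMSO controls, with values from duplicates.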

| Target | log2 fold change |
| --- | --- |
| C1orf112 (UniProt Q9NSG2) | inactive: -0.007 |
| CAMK2B (UniProt Q13554) | inactive: -0.032 |
| CAB39 (UniProt Q9Y376) | inactive: -0.018 |
| C9orf78 (UniProt Q9NZ63) | inactive: 0.028 |
| C16orf70 (UniProt Q9BSU1) | inactive: -0.071 |
| CAPNS1 (UniProt P04632) | inactive: -0.067 |
| C15orf41 (UniProt Q9Y2V0) | inactive: 0.029 |
| C18orf25 (UniProt Q96B23) | inactive: 0.043 |
| CABLES2 (UniProt Q9BTV7) | inactive: -0.131 |
| C1orf52 (UniProt Q8N6N3) | inactive: 0.01 |
| CA2 (UniProt P00918) | inactive: -0.064 |
| BTN3A3 (UniProt O00478) | inactive: -0.003 |
| C19orf53 (UniProt Q9UNZ5) | inactive: 0.042 |
| C1GALT1C1 (UniProt Q96EU7) | inactive: 0.025 |
| C19orf25 (UniProt Q9UFG5) | inactive: -0.124 |
| C20orf27 isoform 2 (UniProt Q9GZN8) | inactive: -0.033 |
| C1orf174 (UniProt Q8IYL3) | inactive: -0.006 |
| CACTIN isoform 2 (UniProt Q8WUQ7) | inactive: -0.04 |
| C3orf38 (UniProt Q5JPI3) | inactive: -0.019 |
| C1orf198 (UniProt Q9H425) | inactive: 0.055 |
| C1orf167 isoform 2 (UniProt Q5SNV9) | inactive: 0.073 |
| C6orf89 isoform 2 (UniProt Q6UWU4) | inactive: -0.036 |

Reformatted: entries from further up
Target	log2 fold change
C1orf112 (UniProt Q9NSG2)	inactive: -0.007
CAB39 (UniProt Q9Y376)	inactive: -0.018
C15orf41 (UniProt Q9Y2V0)	inactive: 0.029
CABLES2 (UniProt Q9BTV7)	inactive: -0.131
C20orf27 isoform 2 (UniProt Q9GZN8)	inactive: -0.033
